We go through one substance from PMC3663501.

Sequences of proteins named here, by UniProt entry; tags and fusion partners are left off. A change or cut given only in a name is not applied to a line headed by its entry. A line that says so, or that is headed by a name, gives the form on record, which may keep a tag or linker.
220-kDa ankyrin-B-GFP (Q01484-2, form named): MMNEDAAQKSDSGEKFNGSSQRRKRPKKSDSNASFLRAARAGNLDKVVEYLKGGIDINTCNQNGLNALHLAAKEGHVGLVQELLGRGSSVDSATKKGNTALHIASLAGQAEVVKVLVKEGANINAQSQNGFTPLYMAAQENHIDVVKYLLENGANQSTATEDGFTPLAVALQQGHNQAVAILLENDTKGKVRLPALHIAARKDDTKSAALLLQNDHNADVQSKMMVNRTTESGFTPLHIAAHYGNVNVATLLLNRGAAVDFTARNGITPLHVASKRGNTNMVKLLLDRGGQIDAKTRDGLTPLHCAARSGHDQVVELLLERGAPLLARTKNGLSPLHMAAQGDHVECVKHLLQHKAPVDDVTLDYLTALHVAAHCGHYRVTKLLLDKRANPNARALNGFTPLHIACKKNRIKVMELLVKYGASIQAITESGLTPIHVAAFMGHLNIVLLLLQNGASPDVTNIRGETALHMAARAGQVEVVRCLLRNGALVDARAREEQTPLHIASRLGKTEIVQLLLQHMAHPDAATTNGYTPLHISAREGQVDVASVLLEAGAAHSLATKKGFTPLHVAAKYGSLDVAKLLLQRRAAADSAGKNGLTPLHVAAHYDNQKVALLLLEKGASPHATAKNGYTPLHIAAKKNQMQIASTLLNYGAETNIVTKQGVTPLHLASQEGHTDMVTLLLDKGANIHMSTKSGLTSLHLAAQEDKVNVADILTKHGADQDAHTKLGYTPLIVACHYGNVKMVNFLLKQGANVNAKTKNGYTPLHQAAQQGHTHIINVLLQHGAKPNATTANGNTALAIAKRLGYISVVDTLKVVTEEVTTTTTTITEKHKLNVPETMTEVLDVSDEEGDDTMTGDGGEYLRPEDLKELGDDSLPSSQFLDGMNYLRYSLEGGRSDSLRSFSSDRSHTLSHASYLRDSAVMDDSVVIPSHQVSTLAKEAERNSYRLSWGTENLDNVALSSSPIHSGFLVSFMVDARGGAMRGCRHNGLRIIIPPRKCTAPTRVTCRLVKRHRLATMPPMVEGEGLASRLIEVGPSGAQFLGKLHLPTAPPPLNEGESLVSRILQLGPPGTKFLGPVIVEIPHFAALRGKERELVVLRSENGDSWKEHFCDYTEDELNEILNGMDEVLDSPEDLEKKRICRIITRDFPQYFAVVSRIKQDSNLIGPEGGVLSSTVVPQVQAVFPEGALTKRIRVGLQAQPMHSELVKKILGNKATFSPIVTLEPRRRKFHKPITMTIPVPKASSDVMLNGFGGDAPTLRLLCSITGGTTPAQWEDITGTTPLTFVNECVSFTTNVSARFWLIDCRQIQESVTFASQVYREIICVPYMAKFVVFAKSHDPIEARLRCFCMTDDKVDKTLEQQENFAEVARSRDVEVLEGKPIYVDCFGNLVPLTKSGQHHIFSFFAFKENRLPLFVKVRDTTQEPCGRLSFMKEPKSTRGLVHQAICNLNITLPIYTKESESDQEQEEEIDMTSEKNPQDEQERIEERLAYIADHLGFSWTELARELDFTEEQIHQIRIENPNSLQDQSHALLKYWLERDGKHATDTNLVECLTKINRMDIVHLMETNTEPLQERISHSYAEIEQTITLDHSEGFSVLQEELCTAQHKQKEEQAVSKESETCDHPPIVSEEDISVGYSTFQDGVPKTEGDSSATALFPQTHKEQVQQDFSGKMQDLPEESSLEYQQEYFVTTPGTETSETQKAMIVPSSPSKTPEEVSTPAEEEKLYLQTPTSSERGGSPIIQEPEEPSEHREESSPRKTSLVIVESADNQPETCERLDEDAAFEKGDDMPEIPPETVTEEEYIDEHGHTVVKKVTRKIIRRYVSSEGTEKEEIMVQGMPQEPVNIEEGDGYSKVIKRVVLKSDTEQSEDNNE

No constants are given. Whether binding was seen depends on the method and setting. Tags and fused reporters may be left off the sequences shown.

This test concerns the target T1, HA-tagged neurofascin 186 (UniProt P97685).
T1 sequence: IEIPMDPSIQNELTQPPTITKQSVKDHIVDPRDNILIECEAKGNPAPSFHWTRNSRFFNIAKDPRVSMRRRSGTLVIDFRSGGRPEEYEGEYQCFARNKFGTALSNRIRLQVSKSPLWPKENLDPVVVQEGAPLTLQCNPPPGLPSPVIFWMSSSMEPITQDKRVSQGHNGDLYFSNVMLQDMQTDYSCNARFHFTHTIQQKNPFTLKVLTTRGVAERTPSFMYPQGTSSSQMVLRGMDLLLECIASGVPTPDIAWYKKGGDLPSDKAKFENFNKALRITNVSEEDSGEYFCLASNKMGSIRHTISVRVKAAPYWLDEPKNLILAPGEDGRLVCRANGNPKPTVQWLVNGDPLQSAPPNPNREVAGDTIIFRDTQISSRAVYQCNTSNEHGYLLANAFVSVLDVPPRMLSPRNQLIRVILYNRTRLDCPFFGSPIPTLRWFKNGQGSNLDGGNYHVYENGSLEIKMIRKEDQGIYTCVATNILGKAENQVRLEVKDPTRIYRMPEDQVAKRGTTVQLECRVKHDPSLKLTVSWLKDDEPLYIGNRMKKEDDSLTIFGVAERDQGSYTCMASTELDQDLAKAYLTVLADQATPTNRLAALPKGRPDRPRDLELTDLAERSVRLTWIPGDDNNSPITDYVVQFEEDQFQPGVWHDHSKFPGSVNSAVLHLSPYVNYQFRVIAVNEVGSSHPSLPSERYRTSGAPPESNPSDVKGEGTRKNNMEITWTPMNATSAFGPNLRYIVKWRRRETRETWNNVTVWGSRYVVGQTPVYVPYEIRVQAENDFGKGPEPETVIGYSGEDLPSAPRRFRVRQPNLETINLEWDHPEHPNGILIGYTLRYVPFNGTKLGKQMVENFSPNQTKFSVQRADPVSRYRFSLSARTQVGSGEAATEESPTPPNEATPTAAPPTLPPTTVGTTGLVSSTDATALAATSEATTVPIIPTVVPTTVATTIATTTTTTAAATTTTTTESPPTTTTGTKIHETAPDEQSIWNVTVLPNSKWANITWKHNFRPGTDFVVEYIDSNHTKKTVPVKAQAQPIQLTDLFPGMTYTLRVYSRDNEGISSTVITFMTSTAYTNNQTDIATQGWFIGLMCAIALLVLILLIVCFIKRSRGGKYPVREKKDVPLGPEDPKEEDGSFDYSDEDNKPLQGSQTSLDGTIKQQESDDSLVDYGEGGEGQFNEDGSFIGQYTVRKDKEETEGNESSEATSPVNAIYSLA
The test is described as follows: membrane recruitment assay (immunofluorescence of cotransfected cells); HEK293 cells cotransfected with HA-tagged neurofascin-186 or E-cadherin and GFP-tagged ankyrin; fixed 24 h later; read-out is recruitment of ankyrin-GFP from the cytoplasm to the plasma membrane.

As to “220-kDa ankyrin-B-GFP (from UniProt Q01484-2 1-1872)”, the binding entry is on record as “no binding”.
